Measured values from US20140093513A1, “METHODS OF LOWERING PROPROTEIN CONVERSATE SUBTILISIN/KEXIN TYPE 9 (PCSK9)” (Catabasis Pharmaceuticals, Inc., priority 2012, published 2014).

System: ApoE3Leiden mice
Assay: Plasma cholesterol and triglycerides in ApoE3Leiden mice on Western type diet, 2 and 4 weeks of treatment
Format: in vivo
Conditions: female APOE*3Leiden mice, WTD, I-8 0.75% w/w, atorvastatin 0.0015% w/w in diet
Method: The study was conducted using female APOE*3Leiden mice (groups of each n=10) and one untreated reference control group on chow (n=5). To induce dyslipidemia, a high cholesterol Western type diet containing 1% cholesterol, 15% cacao butter, 40.5% sucrose and 1% corn oil (WTD) was fed to the mice for a total experimental period of 20 weeks (of which 4 weeks are a run-in period). To prevent oxidation of the test compound (I-8), 30 mg/kg alpha-tocopherol was added to the high cholesterol diets, i.e. also in the high cholesterol diet control.
In the first 4 weeks (run-in period), a pro-atherogenic state of dyslipidemia characterized by elevated plasma cholesterol levels (about 15-20 mM) was induced in all mice by feeding them an atherogenic diet containing 1% cholesterol. The mice were then separated into a control group (no treatment) and three treatment groups: i) compound I-8, ii) atorvastatin and iii) compound I-8+atorvastatin as described below. The dyslipidemic mice were grouped on the basis of plasma cholesterol at t=0 assayed in 4 h fasting blood. Mice with low cholesterol after the run-in period were excluded so that homogenous experimental groups were obtained. A group of reference mice (n=5) remained on a chow diet during the complete study period (normolipidemic reference mice).
The doses of the test compounds were as follows: • Compound I-8: 0.75% w/w in diet. • Atorvastatin: 0.0015% w/w in diet (to achieve about 20% reduction in plasma cholesterol). • Alpha-tocopherol: 0.0030% w/w in diet The test compounds, sufficient for approx. 3 kg of diet (i.e. 25 g of compound I-8), and alpha-tocopherol (>200 mg) were formulated before the start of the treatment period (t=0), by adding the test compounds to melted, hand warm cocoa butter and mixed for 5 min. This mix was then added to the master mix (containing the rest of the ingredients) and mixed thoroughly. The diet was frozen to −20° C. On the subsequent day, the diet was broken into small pellets (approx 5 g per piece) and freeze dried, and stored in vacuum sealed bags (approx 500 g) at −20° C. until use. […]

What does the source list for CC(C)c1c(C(=O)Nc2ccccc2)c(-c2ccccc2)c(-c2ccc(F)cc2)n1CC[C@@H](O)C[C@@H](O)CC(=O)O [atorvastatin, reference compound]?
plasma cholesterol at t=2 weeks (2 weeks of treatment, FIG. 4): statistically significant reduction; plasma cholesterol after 4 weeks of treatment (4 weeks, FIG. 5): Comparable level of cholesterol reduction; plasma triglyceride levels after 4 weeks of treatment (4 weeks, FIG. 6): failed to show a statistically significant change
